Some of the results follow. Hit calls seldom repeat between salt and free forms of one compound.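 In K562 cells expressing nanoluciferase-fused kinases, luminescence was recorded at 4 h intervals between 2 and 18 h, normalized as percent of control with DMSO at 100% and a positive control at 0%. A significant (2 sigma) signal drop marks a time point as decreased. The authors' rule for a hit is not shown and takes in more than the number of time points.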
Legend:
Test in all cases: kinase-Nluc reporter destabilization hit call (1 = scored as downregulated) (binary); higher = compound decreases kinase abundance
Conditions in all cases: K562; 2-18 h
[1] = biological target: IRAK3 (UniProt Q9Y616)
[2] = biological target: JAK1 (UniProt P23458)
[3] = biological target: LCK (UniProt P06239)
[4] = biological target: LIMK1 (UniProt P53667)
[5] = biological target: LIMK2 (UniProt P53671)
[6] = biological target: LMTK2 (UniProt Q8IWU2)
[7] = biological target: LYN (UniProt P07948)
[8] = biological target: MAP2K1 (UniProt Q02750)
[9] = biological target: MAP2K2 (UniProt P36507)
[10] = biological target: MAP4K2 (UniProt Q12851)
[11] = biological target: MAPK1 (UniProt P28482)
[12] = biological target: MAPK4 (UniProt P31152)
[13] = biological target: MAPKAPK2 (UniProt P49137)
[14] = biological target: MKNK1 (UniProt Q9BUB5)
[15] = biological target: NTRK2 (UniProt Q16620)
[16] = biological target: NTRK3 (UniProt Q16288)
[17] = biological target: PAK4 (UniProt O96013)
[18] = biological target: PBK (UniProt Q96KB5)
[19] = biological target: PDGFRB (UniProt P09619)
[20] = biological target: PDK1 (UniProt Q15118)

Protein sequences, listed by entry. Tags and fused reporters are not part of them. Lines headed by an entry give the natural chain unless they say otherwise; changes in a name come on top.
UniProt P23458: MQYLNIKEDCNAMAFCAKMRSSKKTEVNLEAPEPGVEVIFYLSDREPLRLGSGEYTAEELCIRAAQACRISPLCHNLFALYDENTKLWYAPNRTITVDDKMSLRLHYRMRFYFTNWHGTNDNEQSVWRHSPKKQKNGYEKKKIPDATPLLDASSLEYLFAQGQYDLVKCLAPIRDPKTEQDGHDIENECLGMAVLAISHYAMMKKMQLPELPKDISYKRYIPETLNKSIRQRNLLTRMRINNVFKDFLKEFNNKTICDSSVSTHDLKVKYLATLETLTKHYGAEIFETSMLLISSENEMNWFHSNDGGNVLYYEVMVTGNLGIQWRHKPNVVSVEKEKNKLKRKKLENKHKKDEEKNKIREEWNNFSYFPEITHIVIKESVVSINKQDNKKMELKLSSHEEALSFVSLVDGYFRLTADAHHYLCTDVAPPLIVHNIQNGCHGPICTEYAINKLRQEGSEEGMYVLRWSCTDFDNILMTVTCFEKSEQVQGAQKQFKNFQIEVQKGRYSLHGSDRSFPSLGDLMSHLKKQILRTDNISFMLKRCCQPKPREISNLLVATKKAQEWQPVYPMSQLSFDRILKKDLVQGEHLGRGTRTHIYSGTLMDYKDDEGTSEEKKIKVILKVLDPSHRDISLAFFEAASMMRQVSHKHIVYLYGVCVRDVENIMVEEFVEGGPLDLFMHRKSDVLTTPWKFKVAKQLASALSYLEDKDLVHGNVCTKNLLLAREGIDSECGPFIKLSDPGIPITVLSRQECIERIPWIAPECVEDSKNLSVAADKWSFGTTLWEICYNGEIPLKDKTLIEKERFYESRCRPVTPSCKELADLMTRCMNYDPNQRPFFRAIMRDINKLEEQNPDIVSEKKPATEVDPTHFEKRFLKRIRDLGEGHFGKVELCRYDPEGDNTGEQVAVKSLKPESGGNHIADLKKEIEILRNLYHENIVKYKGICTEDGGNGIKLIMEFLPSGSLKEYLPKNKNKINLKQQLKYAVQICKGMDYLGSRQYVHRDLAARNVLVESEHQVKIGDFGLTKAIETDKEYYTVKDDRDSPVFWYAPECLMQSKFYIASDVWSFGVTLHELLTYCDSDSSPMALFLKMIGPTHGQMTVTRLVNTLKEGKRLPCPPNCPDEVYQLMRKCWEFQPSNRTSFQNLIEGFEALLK
UniProt P53671: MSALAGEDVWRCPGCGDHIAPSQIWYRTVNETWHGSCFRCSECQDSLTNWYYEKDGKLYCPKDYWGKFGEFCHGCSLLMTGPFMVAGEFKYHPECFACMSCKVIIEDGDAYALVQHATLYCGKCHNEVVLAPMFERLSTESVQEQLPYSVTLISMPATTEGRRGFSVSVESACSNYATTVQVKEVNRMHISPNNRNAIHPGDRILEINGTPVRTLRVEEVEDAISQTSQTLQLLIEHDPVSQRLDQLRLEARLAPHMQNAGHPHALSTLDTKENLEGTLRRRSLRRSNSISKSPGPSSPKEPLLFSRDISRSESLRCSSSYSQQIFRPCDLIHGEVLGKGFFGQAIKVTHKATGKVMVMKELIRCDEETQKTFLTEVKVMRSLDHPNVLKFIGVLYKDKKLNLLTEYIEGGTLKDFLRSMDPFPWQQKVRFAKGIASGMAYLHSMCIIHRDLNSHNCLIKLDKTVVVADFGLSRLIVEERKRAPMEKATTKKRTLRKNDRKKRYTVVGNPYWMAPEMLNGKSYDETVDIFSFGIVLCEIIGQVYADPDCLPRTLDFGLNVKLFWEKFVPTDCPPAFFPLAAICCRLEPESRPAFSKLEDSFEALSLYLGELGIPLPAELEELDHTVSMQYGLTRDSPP
UniProt Q8IWU2: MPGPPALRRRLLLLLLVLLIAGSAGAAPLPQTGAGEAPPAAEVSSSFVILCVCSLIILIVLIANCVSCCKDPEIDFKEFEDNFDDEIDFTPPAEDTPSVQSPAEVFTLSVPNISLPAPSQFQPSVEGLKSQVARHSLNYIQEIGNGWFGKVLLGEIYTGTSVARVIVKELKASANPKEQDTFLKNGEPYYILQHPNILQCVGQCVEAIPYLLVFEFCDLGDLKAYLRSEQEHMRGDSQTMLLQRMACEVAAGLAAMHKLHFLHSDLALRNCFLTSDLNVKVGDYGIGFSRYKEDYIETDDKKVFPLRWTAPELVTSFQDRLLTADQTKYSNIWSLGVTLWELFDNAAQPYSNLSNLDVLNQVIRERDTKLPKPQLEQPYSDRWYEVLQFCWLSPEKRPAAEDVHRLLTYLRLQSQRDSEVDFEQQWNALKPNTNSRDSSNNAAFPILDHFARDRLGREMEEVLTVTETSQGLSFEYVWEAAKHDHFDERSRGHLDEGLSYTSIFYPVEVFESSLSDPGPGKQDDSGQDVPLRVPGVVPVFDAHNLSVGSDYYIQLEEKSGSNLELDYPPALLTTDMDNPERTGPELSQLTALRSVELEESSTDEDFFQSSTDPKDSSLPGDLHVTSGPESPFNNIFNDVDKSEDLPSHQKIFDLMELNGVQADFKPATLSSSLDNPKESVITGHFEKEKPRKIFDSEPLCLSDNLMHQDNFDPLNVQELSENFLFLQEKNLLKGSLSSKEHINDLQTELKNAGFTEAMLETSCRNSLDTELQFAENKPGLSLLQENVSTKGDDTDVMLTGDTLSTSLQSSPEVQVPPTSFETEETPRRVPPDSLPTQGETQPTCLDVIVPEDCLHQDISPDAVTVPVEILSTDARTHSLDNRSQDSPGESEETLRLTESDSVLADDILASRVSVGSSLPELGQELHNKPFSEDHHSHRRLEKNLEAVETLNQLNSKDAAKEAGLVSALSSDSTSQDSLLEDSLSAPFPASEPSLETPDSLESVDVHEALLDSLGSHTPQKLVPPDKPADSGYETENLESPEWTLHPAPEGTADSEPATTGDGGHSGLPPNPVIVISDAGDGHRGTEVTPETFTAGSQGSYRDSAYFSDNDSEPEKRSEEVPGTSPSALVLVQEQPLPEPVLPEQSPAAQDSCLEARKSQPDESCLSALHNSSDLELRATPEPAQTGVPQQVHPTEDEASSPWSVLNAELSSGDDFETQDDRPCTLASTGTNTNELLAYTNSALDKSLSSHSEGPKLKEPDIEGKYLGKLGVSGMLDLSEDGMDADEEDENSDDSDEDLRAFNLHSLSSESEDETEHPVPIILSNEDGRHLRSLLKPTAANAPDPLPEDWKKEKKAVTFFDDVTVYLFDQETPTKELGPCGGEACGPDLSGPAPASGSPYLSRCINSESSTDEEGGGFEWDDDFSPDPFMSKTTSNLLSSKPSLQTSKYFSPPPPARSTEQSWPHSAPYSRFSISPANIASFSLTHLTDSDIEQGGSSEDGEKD
UniProt Q12851: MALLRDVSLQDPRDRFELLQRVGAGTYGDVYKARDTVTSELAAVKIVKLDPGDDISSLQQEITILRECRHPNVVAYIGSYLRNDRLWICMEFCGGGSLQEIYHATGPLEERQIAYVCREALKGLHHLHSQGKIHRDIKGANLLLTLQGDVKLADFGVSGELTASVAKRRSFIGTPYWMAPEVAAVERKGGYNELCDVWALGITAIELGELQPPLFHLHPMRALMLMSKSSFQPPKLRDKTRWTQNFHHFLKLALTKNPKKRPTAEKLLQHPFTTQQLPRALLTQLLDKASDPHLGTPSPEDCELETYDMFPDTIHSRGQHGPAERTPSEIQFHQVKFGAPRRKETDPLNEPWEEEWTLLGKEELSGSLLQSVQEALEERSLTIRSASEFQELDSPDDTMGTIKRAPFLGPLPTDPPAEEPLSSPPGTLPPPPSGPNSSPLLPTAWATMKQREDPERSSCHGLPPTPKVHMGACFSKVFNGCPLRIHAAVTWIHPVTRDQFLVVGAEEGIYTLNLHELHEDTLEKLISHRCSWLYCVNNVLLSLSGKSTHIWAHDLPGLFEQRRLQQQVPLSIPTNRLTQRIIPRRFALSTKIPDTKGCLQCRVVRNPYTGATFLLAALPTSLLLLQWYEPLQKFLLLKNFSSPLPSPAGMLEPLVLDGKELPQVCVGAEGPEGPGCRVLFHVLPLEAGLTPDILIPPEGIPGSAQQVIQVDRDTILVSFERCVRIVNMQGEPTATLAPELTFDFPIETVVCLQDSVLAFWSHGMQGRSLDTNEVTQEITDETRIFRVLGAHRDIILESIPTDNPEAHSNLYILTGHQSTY
UniProt P28482, whole entry: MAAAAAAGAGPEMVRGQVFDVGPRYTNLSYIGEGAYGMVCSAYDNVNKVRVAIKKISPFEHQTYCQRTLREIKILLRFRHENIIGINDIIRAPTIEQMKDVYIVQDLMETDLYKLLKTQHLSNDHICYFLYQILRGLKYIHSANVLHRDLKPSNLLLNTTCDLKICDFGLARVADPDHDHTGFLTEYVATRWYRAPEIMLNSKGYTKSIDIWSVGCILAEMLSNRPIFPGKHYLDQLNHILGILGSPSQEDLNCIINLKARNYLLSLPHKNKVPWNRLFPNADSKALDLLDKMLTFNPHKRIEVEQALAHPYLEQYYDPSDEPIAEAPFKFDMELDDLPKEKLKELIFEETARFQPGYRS
UniProt Q16620, whole entry, looked up: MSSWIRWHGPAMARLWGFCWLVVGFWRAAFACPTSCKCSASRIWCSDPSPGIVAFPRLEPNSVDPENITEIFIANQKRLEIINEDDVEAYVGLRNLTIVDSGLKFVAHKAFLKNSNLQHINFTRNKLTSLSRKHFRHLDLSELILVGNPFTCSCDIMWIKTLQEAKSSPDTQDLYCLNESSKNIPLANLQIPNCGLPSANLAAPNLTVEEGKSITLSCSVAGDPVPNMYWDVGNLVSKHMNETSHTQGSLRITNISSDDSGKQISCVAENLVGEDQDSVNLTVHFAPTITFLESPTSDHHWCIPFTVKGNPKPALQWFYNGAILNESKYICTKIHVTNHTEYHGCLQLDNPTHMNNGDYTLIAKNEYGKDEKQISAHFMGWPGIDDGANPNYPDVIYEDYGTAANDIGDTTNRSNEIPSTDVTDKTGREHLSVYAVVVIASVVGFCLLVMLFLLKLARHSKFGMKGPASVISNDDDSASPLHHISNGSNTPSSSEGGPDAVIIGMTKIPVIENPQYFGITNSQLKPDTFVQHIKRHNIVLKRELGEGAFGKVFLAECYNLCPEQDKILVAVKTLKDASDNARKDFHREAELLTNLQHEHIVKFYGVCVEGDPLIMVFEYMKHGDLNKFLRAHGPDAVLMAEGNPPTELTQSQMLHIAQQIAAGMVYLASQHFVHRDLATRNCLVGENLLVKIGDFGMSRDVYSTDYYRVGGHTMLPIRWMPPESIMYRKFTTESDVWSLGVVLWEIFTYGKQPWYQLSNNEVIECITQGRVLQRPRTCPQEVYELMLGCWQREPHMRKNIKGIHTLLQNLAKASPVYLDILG
UniProt Q16288, whole entry, looked up: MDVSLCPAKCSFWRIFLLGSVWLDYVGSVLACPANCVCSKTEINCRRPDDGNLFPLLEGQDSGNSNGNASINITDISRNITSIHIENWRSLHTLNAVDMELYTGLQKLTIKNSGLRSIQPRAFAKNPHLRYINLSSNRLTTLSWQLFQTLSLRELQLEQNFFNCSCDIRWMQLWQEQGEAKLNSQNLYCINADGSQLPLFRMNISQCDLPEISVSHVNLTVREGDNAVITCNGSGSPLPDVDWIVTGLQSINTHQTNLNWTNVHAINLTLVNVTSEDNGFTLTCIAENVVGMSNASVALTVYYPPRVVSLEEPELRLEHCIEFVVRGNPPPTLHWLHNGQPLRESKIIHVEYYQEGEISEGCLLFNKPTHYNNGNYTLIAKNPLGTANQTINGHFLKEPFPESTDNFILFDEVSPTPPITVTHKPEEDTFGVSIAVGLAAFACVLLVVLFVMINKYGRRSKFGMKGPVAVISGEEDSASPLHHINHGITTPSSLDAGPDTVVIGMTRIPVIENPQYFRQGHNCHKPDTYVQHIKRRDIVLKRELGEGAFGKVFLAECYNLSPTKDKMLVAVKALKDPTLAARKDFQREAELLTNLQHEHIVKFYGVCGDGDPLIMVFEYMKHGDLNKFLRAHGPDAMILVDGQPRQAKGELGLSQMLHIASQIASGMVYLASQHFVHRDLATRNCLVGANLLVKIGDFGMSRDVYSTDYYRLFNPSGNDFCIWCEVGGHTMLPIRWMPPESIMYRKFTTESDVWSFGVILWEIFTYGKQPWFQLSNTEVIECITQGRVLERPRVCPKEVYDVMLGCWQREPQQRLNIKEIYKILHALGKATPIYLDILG
UniProt Q15118, whole entry, looked up: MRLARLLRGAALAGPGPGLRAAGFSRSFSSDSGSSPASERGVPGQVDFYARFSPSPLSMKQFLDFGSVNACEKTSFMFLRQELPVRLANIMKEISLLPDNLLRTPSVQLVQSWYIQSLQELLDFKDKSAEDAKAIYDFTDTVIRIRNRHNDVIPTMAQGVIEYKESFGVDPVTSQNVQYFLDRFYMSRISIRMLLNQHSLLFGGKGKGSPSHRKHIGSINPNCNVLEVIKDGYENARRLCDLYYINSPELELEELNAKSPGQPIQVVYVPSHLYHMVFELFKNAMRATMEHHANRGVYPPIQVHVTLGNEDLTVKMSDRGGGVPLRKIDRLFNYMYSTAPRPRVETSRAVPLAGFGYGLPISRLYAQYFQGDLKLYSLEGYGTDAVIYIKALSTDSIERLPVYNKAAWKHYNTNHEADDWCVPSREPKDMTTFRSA

Measured: kinase-Nluc reporter destabilization hit call

c1cc(-c2c[nH]c3nccc(N4CCC[C@@]5(CCCCN5)C4)c23)ncn1 (10 µM)
inactive: [1] 0 | [2] 0 | [3] 0 | [4] 0 | [5] 0 | [6] 0 | [7] 0 | [8] 0 | [9] 0 | [10] 0 | [11] 0 | [12] 0 | [13] 0 | [14] 0 | [15] 0 | [16] 0 | [17] 0 | [18] 0 | [19] 0 | [20] 0

CCC(C)N1c2ccccc2C(=O)N(C)c2cnc(Nc3ccc(C(=O)N4CCC(N5CCN(C)CC5)CC4)cc3OC)nc21 (stereo not given) (2.5 µM)
inactive: [1] 0 | [2] 0 | [3] 0 | [4] 0 | [5] 0 | [6] 0 | [7] 0 | [8] 0 | [9] 0 | [10] 0 | [11] 0 | [12] 0 | [13] 0 | [14] 0 | [15] 0 | [16] 0 | [17] 0 | [18] 0 | [19] 0 | [20] 0

CCc1c(C(=O)NNC(=O)C(O)c2cc(F)cc(F)c2)ccc(O)c1C (stereo not given) (10 µM)
inactive: [1] 0 | [2] 0 | [3] 0 | [4] 0 | [5] 0 | [6] 0 | [7] 0 | [8] 0 | [9] 0 | [10] 0 | [11] 0 | [12] 0 | [13] 0 | [14] 0 | [15] 0 | [16] 0 | [17] 0 | [18] 0 | [19] 0 | [20] 0

COc1ccc(OC)c(C2C(C#N)=C(N)Oc3n[nH]c(-c4ccc5ccccc5c4)c32)c1 (stereo not given) (10 µM)
inactive: [1] 0 | [2] 0 | [3] 0 | [4] 0 | [5] 0 | [6] 0 | [7] 0 | [8] 0 | [9] 0 | [10] 0 | [11] 0 | [12] 0 | [13] 0 | [14] 0 | [15] 0 | [16] 0 | [17] 0 | [18] 0 | [19] 0 | [20] 0

COc1cc(Nc2ncc(F)c(Nc3ccc4c(n3)N(COP(=O)(O)O)C(=O)C(C)(C)O4)n2)cc(OC)c1OC [Fostamatinib Disodium] (10 µM)
inactive: [1] 0 | [2] 0 | [3] 0 | [4] 0 | [5] 0 | [6] 0 | [7] 0 | [8] 0 | [9] 0 | [10] 0 | [11] 0 | [12] 0 | [13] 0 | [14] 0 | [15] 0 | [16] 0 | [17] 0 | [18] 0 | [19] 0 | [20] 0

CC(C)(O)CNc1ncc(-c2ccnc(Nc3ccnc(Cl)c3)n2)c(CC2CC2)n1 (2.5 µM)
inactive: [1] 0 | [2] 0 | [3] 0 | [4] 0 | [5] 0 | [6] 0 | [7] 0 | [8] 0 | [9] 0 | [10] 0 | [11] 0 | [12] 0 | [13] 0 | [14] 0 | [15] 0 | [16] 0 | [17] 0 | [18] 0 | [19] 0 | [20] 0

CCc1cc2c(cc1N1CCC(N3CCOCC3)CC1)C(C)(C)c1[nH]c3cc(C#N)ccc3c1C2=O [Alectinib] (10 µM)
inactive: [1] 0 | [2] 0 | [3] 0 | [4] 0 | [5] 0 | [6] 0 | [7] 0 | [8] 0 | [9] 0 | [10] 0 | [11] 0 | [12] 0 | [13] 0 | [14] 0 | [15] 0 | [16] 0 | [17] 0 | [18] 0 | [19] 0 | [20] 0

O=C1NC(=O)/C(=C/c2ccc3nccnc3c2)S1 (10 µM)
inactive: [1] 0 | [2] 0 | [3] 0 | [4] 0 | [5] 0 | [6] 0 | [7] 0 | [8] 0 | [9] 0 | [10] 0 | [11] 0 | [12] 0 | [13] 0 | [14] 0 | [15] 0 | [16] 0 | [17] 0 | [18] 0 | [19] 0 | [20] 0

NC(=O)c1nnc(N[C@@H]2CCCC[C@@H]2N)nc1Nc1cccc2cc[nH]c12 (10 µM)
inactive: [1] 0 | [2] 0 | [3] 0 | [4] 0 | [5] 0 | [6] 0 | [7] 0 | [8] 0 | [9] 0 | [10] 0 | [11] 0 | [12] 0 | [13] 0 | [14] 0 | [15] 0 | [16] 0 | [17] 0 | [18] 0 | [19] 0 | [20] 0

Cn1nccc1Nc1nccc(-c2ccn([C@H](CO)c3ccc(Cl)c(F)c3)c(=O)c2)n1 [Ravoxertinib] (10 µM)
inactive: [1] 0 | [2] 0 | [3] 0 | [4] 0 | [5] 0 | [6] 0 | [7] 0 | [8] 0 | [9] 0 | [10] 0 | [11] 0 | [12] 0 | [13] 0 | [14] 0 | [15] 0 | [16] 0 | [17] 0 | [18] 0 | [19] 0 | [20] 0

Cc1nc2sccn2c(=O)c1CCN1CCC(=C(c2ccccc2)c2ccc(F)cc2)CC1 (10 µM)
inactive: [1] 0 | [2] 0 | [3] 0 | [4] 0 | [5] 0 | [6] 0 | [7] 0 | [8] 0 | [9] 0 | [10] 0 | [11] 0 | [12] 0 | [13] 0 | [14] 0 | [15] 0 | [16] 0 | [17] 0 | [18] 0 | [19] 0 | [20] 0

O=C(NCCN1CCOCC1)c1cc2c(Oc3ccc(NC(=O)C4(C(=O)Nc5ccc(F)cc5)CC4)cc3)ccnc2[nH]1 [Tyrosine kinase inhibitor] (10 µM)
inactive: [1] 0 | [2] 0 | [3] 0 | [4] 0 | [5] 0 | [6] 0 | [7] 0 | [8] 0 | [9] 0 | [10] 0 | [11] 0 | [12] 0 | [13] 0 | [14] 0 | [15] 0 | [16] 0 | [17] 0 | [18] 0 | [19] 0 | [20] 0

Nc1nc2ccc(Cl)cc2c2nc(-c3ccco3)nn12 (10 µM)
inactive: [1] 0 | [2] 0 | [3] 0 | [4] 0 | [5] 0 | [6] 0 | [7] 0 | [8] 0 | [9] 0 | [10] 0 | [11] 0 | [12] 0 | [13] 0 | [14] 0 | [15] 0 | [16] 0 | [17] 0 | [18] 0 | [19] 0 | [20] 0

NC(=O)c1ccc(-c2nc(-c3ccc4c(c3)OCCO4)c(-c3ccccn3)[nH]2)cc1 (10 µM)
inactive: [1] 0 | [2] 0 | [3] 0 | [4] 0 | [5] 0 | [6] 0 | [7] 0 | [8] 0 | [9] 0 | [10] 0 | [11] 0 | [12] 0 | [13] 0 | [14] 0 | [15] 0 | [16] 0 | [17] 0 | [18] 0 | [19] 0 | [20] 0

CC#CC(=O)Nc1ccc2ncnc(Nc3cccc(Br)c3)c2c1 (10 µM)
inactive: [1] 0 | [2] 0 | [3] 0 | [4] 0 | [5] 0 | [6] 0 | [7] 0 | [8] 0 | [9] 0 | [10] 0 | [11] 0 | [12] 0 | [13] 0 | [14] 0 | [15] 0 | [16] 0 | [17] 0 | [18] 0 | [19] 0 | [20] 0

CS(=O)(=O)Nc1cc(-c2ccc3ncnc(Nc4ccc(F)c(Cl)c4)c3c2)cnc1Cl (2.5 µM)
inactive: [1] 0 | [2] 0 | [3] 0 | [4] 0 | [5] 0 | [6] 0 | [7] 0 | [8] 0 | [9] 0 | [10] 0 | [11] 0 | [12] 0 | [13] 0 | [14] 0 | [15] 0 | [16] 0 | [17] 0 | [18] 0 | [19] 0 | [20] 0

2 entries drawn at random from the list so far:
CC#CC(=O)Nc1ccc2ncnc(Nc3cccc(Br)c3)c2c1 (10 µM)
inactive: [1] 0 | [2] 0 | [3] 0 | [4] 0 | [5] 0 | [6] 0 | [7] 0 | [8] 0 | [9] 0 | [10] 0 | [11] 0 | [12] 0 | [13] 0 | [14] 0 | [15] 0 | [16] 0 | [17] 0 | [18] 0 | [19] 0 | [20] 0

CS(=O)(=O)Nc1cc(-c2ccc3ncnc(Nc4ccc(F)c(Cl)c4)c3c2)cnc1Cl (2.5 µM)
inactive: [1] 0 | [2] 0 | [3] 0 | [4] 0 | [5] 0 | [6] 0 | [7] 0 | [8] 0 | [9] 0 | [10] 0 | [11] 0 | [12] 0 | [13] 0 | [14] 0 | [15] 0 | [16] 0 | [17] 0 | [18] 0 | [19] 0 | [20] 0

(cont.)

COc1cc2ncnc(Nc3ccc(Cl)cc3F)c2cc1OC (10 µM)
inactive: [1] 0 | [2] 0 | [3] 0 | [4] 0 | [5] 0 | [6] 0 | [7] 0 | [8] 0 | [9] 0 | [10] 0 | [11] 0 | [12] 0 | [13] 0 | [14] 0 | [15] 0 | [16] 0 | [17] 0 | [18] 0 | [19] 0 | [20] 0

Cc1ccc(CNc2ncnc3ccc(-c4ccc(CO)o4)cc23)o1 (10 µM)
inactive: [1] 0 | [2] 0 | [3] 0 | [4] 0 | [5] 0 | [6] 0 | [7] 0 | [8] 0 | [9] 0 | [10] 0 | [11] 0 | [12] 0 | [13] 0 | [14] 0 | [15] 0 | [16] 0 | [17] 0 | [18] 0 | [19] 0 | [20] 0

Reference: the supplement of paper PMC12823440, “Inhibitors supercharge kinase turnover through native proteolytic circuits” (Nature, 2025)
